PubChem BioAssay AID504764 | Drosophila RNAi Screening Center | 2011

- Test: 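Genome-wide screen for regulators of Notch-driven gene expression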 (primary screen)
- Cell system: Drosophila Kc167 cells
- Knock-down reagent: long dsRNA against Drosophila genes
- Timing: about 5 days (4 days dsRNA, then 24 h after transfection)
- Challenge: transfection of constitutively active membrane-tethered Notch lacking the extracellular domain, read 24 h later
- Measurement: 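Light from a Notch-responsive E(spl)m3 luciferase reporter under active Notch, with control-promoter and no-Notch reporter wells to normalise; raw counts from paired wells a and b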
- Scale: induced reporter light, run 1, well a and induced reporter light, run 1, well b: higher = more light from the Notch target reporter with active Notch; control promoter light, run 1, well a and control promoter light, run 1, well b: higher = more light from the viral control promoter (cell number, transfection, viability); uninduced reporter light, run 1, well a: higher = more light from the Notch target reporter without active Notch
- Active means: 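Wells with low control signal or poorly matching duplicates excluded; duplicates averaged; per source plate, z beyond ±2 for induced/control log2 ratio or beyond ±1.8 for induced/uninduced marks a hit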
- Calls: active = modifier hit (raised or lowered Notch signal); inactive = not a hit
The deposit covers about 22,000 reagents; this is a random part of those with a known target gene and a result. In the full data, 403 (1.9%) were called active. 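Unnormalised raw counts per well; ratio z-scores behind the hit calls and whether each hit raises or lowers signal are not deposited.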 Entries without a mark were called inactive. The numbers tell different reagents against one gene apart. Names joined by + are all predicted targets of the reagent. Not given: the amount of reagent.

gene	reagent no.	induced reporter light, run 1, well a	induced reporter light, run 1, well b	control promoter light, run 1, well a	control promoter light, run 1, well b	uninduced reporter light, run 1, well a
CG7781	1	1.50e5	1.92e5	91860	1.40e5	22300
St2	1	1.31e5	1.03e5	1.03e5	72790	9195
CG12012	1	1.21e5	1.25e5	1.51e5	1.43e5	5305
mts	1	12420	11010	13645	14310	645
CG17571	1	67060	74990	64640	67775	7250
CG17571	2	42090	40785	41130	32125	2795
HHEX	1	1.07e5	94290	1.58e5	1.45e5	8385
CSN3	1	57405	42625	27320	21038	6438
mRpL46	1	94565	1.30e5	1.47e5	1.46e5	4965
bor	1	1.08e5	1.09e5	1.33e5	1.36e5	10630
UbcE2H	1	2.55e5	1.93e5	3.22e5	3.31e5	12438
CG11858	1	1.63e5	1.84e5	2.54e5	2.62e5	15075
Cap-D2	1	2.02e5	2.47e5	2.99e5	3.14e5	17300
jing	1	1.38e5	1.01e5	1.24e5	1.37e5	10245
jing	2	90000	1.09e5	1.28e5	1.25e5	4785
jing	3	1.79e5	1.92e5	1.39e5	1.24e5	16070
thoc6	1	1.29e5	94670	66635	34440	8938
rux	1	2.26e5	2.03e5	2.65e5	2.53e5	13900
Oseg1	1	1.16e5	97360	1.02e5	29320	10885
CG30058 + CG34235 + CG34312	1	1.53e5	1.73e5	2.09e5	2.10e5	18090

2 entries from above, limited to “induced reporter light, run 1, well b”.
CG7781: 1.92e5
St2: 1.03e5
